Measured values reported in article PMC12752627, “Discovery of a Potent and Selective TEAD Degrader with Durable Degradation Activity” (Advanced Science, 2025).
This continues a long series; more values of the same kind are listed elsewhere.

Test system: 867 cancer cell lines
Test: PRISM assay (barcoded cell line screening, 5 days);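 further: top test concentration 10 mM in eight-point dilution series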
Format: cell-based
Parameters: scale not given here
Method: The principle of the PRISM assay has been described elsewhere and was conducted as previously outlined by the PRISM team at the Broad Institute.^[ [14], [31] ^] In PRISM (MTS027) experiments, KG‐FP‐003 was tested across 867 different cancer cell lines. Cells were treated with eight concentration gradients, ranging from 4.6 nM to […], in triplicate dilutions over a period of five days. Each plate was treated with 20 µM bortezomib as a positive control and DMSO as a negative control. Three replicate experiments were performed for each compound. The resulting data were analyzed using GraphPad PRISM 9.5.

SMILES: CNC(=O)c1cc2c(c(F)c1-c1c(Cl)c(F)cc3c1C[C@@](CN[C@H]1CC[C@H](C(=O)N4CCC(CC5CCN(C(=O)COc6ccc(N7CCC(=O)NC7=O)c(C)c6)CC5)CC4)CC1)(c1ccccc1)O3)[C@@H](O)[C@@H](C)C2 [KG-FP-003]
- KG-FP-003-AUC (H157_UPPER_AERODIGESTIVE_TRACT ACH-001347 PR300): 0.66
- KG-FP-003-AUC (H357_UPPER_AERODIGESTIVE_TRACT ACH-001509 PR300): 0.63
- KG-FP-003-AUC (H376_UPPER_AERODIGESTIVE_TRACT ACH-001510 PR300): 0.75
- KG-FP-003-AUC (H413_UPPER_AERODIGESTIVE_TRACT ACH-001511 PR300): 1.00
- KG-FP-003-AUC (HA1E_KIDNEY ACH-001310 PR300): 0.61
- KG-FP-003-AUC (HAC2_OVARY ACH-001512 PR300): 0.63
- KG-FP-003-AUC (HARA_LUNG ACH-000843 PR500): 0.77
- KG-FP-003-AUC (HCA1_CERVIX ACH-001513 PR300): 0.88
- KG-FP-003-AUC (HCC15_LUNG ACH-000878 PR500): 0.92
- KG-FP-003-AUC (HCC38_BREAST ACH-000276 PR500): 0.85
- KG-FP-003-AUC (HCC44_LUNG ACH-000667 PR500): 0.49
- KG-FP-003-AUC (HCC56_LARGE_INTESTINE ACH-000467 PR500): 0.99
- KG-FP-003-AUC (HCC78_LUNG ACH-000562 PR500): 0.78
- KG-FP-003-AUC (HCC95_LUNG ACH-000454 PR500): 0.95
- KG-FP-003-AUC (HCC515_LUNG ACH-000872 PR300): 0.81
- KG-FP-003-AUC (HCC827_LUNG ACH-000012 PR500): 0.81
- KG-FP-003-AUC (HCC1143_BREAST ACH-000374 PR500): 0.92
- KG-FP-003-AUC (HCC1195_LUNG ACH-000868 PR500): 0.98
- KG-FP-003-AUC (HCC1359_LUNG ACH-000901 PR500): 0.96
- KG-FP-003-AUC (HCC1395_BREAST ACH-000699 PR300): 0.99
- KG-FP-003-AUC (HCC1419_BREAST ACH-000277 PR500): 1.00
- KG-FP-003-AUC (HCC1428_BREAST ACH-000352 PR500): 0.96
- KG-FP-003-AUC (HCC1438_LUNG ACH-000891 PR500): 0.89
- KG-FP-003-AUC (HCC1806_BREAST ACH-000624 PR500): 0.88
- KG-FP-003-AUC (HCC1937_BREAST ACH-000223 PR500): 0.97
- KG-FP-003-AUC (HCC1954_BREAST ACH-000859 PR300): 0.95
- KG-FP-003-AUC (HCC4006_LUNG ACH-000066 PR500): 0.63
- KG-FP-003-AUC (HCSC1_CERVIX ACH-001516 PR300): 0.99
- KG-FP-003-AUC (HCT15_LARGE_INTESTINE ACH-000997 PR500): 1.00
- KG-FP-003-AUC (HCT116_LARGE_INTESTINE ACH-000971 PR500): 0.88
- KG-FP-003-AUC (HDMB03_CENTRAL_NERVOUS_SYSTEM ACH-001349 PR300): 0.99
- KG-FP-003-AUC (HDQP1_BREAST ACH-000643 PR500): 0.72
- KG-FP-003-AUC (HEC1A_ENDOMETRIUM ACH-000954 PR500): 0.55
- KG-FP-003-AUC (HEC1B_ENDOMETRIUM ACH-000941 PR500): 0.91
- KG-FP-003-AUC (HEC1_ENDOMETRIUM ACH-001517 PR300): 0.98
- KG-FP-003-AUC (HEC6_ENDOMETRIUM ACH-000984 PR500): 0.96
- KG-FP-003-AUC (HEC50B_ENDOMETRIUM ACH-000831 PR300): 0.94
- KG-FP-003-AUC (HEC59_ENDOMETRIUM ACH-000994 PR500): 0.72
- KG-FP-003-AUC (HEC108_ENDOMETRIUM ACH-000990 PR500): 0.53
- KG-FP-003-AUC (HEC116_ENDOMETRIUM ACH-001518 PR300): 0.70
- KG-FP-003-AUC (HEC151_ENDOMETRIUM ACH-000972 PR500): 0.63
- KG-FP-003-AUC (HEC251_ENDOMETRIUM ACH-000996 PR500): 0.63
- KG-FP-003-AUC (HEC265_ENDOMETRIUM ACH-000946 PR500): 0.68
- KG-FP-003-AUC (HEL9217_HAEMATOPOIETIC_AND_LYMPHOID_TISSUE ACH-000005 PR300): 0.88
- KG-FP-003-AUC (HEL_HAEMATOPOIETIC_AND_LYMPHOID_TISSUE ACH-000004 PR300): 0.83
- KG-FP-003-AUC (HEP3B217_LIVER ACH-000625 PR500): 0.99
- KG-FP-003-AUC (HEPG2_LIVER ACH-000739 PR300): 0.80
- KG-FP-003-AUC (HEYA8_OVARY ACH-000542 PR500): 0.77
- KG-FP-003-AUC (HGC27_STOMACH ACH-000847 PR500): 1.00
- KG-FP-003-AUC (HH_HAEMATOPOIETIC_AND_LYMPHOID_TISSUE ACH-000061 PR300): 0.89
- KG-FP-003-AUC (HKA1_SKIN ACH-001521 PR300): 1.00
- KG-FP-003-AUC (HKGZCC_BILIARY_TRACT ACH-001852 PR300): 0.94
- KG-FP-003-AUC (HLF_LIVER ACH-000393 PR500): 1.00
- KG-FP-003-AUC (HMC18_BREAST ACH-000721 PR500): 0.94
- KG-FP-003-AUC (HOS_BONE ACH-000613 PR300): 0.58
- KG-FP-003-AUC (HOS_BONE ACH-000613 PR500): 0.53
- KG-FP-003-AUC (HOTHC_THYROID ACH-002041 PR300): 0.85
- KG-FP-003-AUC (HPAC_PANCREAS ACH-000270 PR500): 0.88
- KG-FP-003-AUC (HPAFII_PANCREAS ACH-000094 PR300): 0.79
- KG-FP-003-AUC (HPBALL_HAEMATOPOIETIC_AND_LYMPHOID_TISSUE ACH-000942 PR300): 0.96
- KG-FP-003-AUC (HS294T_SKIN ACH-000014 PR500): 0.86
- KG-FP-003-AUC (HS611T_HAEMATOPOIETIC_AND_LYMPHOID_TISSUE ACH-000069 PR300): 0.94
- KG-FP-003-AUC (HS683_CENTRAL_NERVOUS_SYSTEM ACH-000067 PR300): 0.98
- KG-FP-003-AUC (HS729_SOFT_TISSUE ACH-000133 PR300): 0.59
- KG-FP-003-AUC (HS729_SOFT_TISSUE ACH-000133 PR500): 0.39
- KG-FP-003-AUC (HS766T_PANCREAS ACH-000178 PR500): 1.00
- KG-FP-003-AUC (HS852T_SKIN ACH-000274 PR500): 0.86
- KG-FP-003-AUC (HS939T_SKIN ACH-000814 PR500): 1.00
- KG-FP-003-AUC (HS944T_SKIN ACH-000632 PR500): 0.99
- KG-FP-003-AUC (HSC1_SKIN ACH-001523 PR300): 0.85
- KG-FP-003-AUC (HSC2_UPPER_AERODIGESTIVE_TRACT ACH-000472 PR500): 0.56
- KG-FP-003-AUC (HSC3_UPPER_AERODIGESTIVE_TRACT ACH-000778 PR500): 0.73
- KG-FP-003-AUC (HSC5_SKIN ACH-001524 PR300): 0.79
- KG-FP-003-AUC (HSKTC_OVARY ACH-002038 PR300): 0.91
- KG-FP-003-AUC (HT3_CERVIX ACH-001525 PR300): 0.99
- KG-FP-003-AUC (HT29_LARGE_INTESTINE ACH-000552 PR500): 0.99
- KG-FP-003-AUC (HT55_LARGE_INTESTINE ACH-000926 PR500): 1.00
- KG-FP-003-AUC (HT115_LARGE_INTESTINE ACH-000986 PR300): 1.00
- KG-FP-003-AUC (HT144_SKIN ACH-000322 PR500): 0.99
- KG-FP-003-AUC (HT1080_SOFT_TISSUE ACH-000054 PR500): 0.45
- KG-FP-003-AUC (HT1197_URINARY_TRACT ACH-000547 PR300): 0.99
- KG-FP-003-AUC (HT1376_URINARY_TRACT ACH-000724 PR500): 0.47
- KG-FP-003-AUC (HTMMT_ENDOMETRIUM ACH-002046 PR300): 0.56
- KG-FP-003-AUC (HT_HAEMATOPOIETIC_AND_LYMPHOID_TISSUE ACH-000914 PR300): 0.84
- KG-FP-003-AUC (HUCCT1_BILIARY_TRACT ACH-000976 PR500): 0.41
- KG-FP-003-AUC (HUG1N_STOMACH ACH-000239 PR300): 0.83
- KG-FP-003-AUC (HUH1_LIVER ACH-000475 PR300): 0.99
- KG-FP-003-AUC (HUH6_LIVER ACH-000671 PR500): 0.89
- KG-FP-003-AUC (HUH7_LIVER ACH-000480 PR500): 0.80
- KG-FP-003-AUC (HUH28_BILIARY_TRACT ACH-000808 PR500): 0.66
- KG-FP-003-AUC (HUO9_BONE ACH-001526 PR300): 0.98
- KG-FP-003-AUC (HUPT3_PANCREAS ACH-000118 PR500): 0.60
- KG-FP-003-AUC (HUPT4_PANCREAS ACH-000213 PR300): 0.55
- KG-FP-003-AUC (HUT78_HAEMATOPOIETIC_AND_LYMPHOID_TISSUE ACH-000509 PR300): 0.99
- KG-FP-003-AUC (IALM_LUNG ACH-000672 PR500): 0.84
- KG-FP-003-AUC (ICC4_BILIARY_TRACT ACH-001844 PR300): 0.99
